Source: ChEMBL document CHEMBL3988442, “University of Dundee, Small-Polar-MMV Screening Library” (2021).

Amino acid sequences for entries named in this document (tags omitted). Residues count along the entry.
UniProt A4I591, 1-473: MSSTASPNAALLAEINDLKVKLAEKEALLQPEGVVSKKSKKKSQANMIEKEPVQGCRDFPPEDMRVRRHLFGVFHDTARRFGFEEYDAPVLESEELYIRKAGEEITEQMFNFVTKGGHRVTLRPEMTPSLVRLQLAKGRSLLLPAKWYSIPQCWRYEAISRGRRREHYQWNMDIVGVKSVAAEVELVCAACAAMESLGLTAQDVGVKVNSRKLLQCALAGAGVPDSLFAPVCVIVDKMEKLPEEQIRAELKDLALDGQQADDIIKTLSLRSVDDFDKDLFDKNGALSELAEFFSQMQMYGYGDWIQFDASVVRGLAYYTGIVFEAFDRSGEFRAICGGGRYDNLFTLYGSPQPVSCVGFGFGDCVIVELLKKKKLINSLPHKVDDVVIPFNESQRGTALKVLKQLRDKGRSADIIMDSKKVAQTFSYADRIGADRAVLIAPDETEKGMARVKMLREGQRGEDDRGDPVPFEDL
UniProt Q4DA54, 1-478: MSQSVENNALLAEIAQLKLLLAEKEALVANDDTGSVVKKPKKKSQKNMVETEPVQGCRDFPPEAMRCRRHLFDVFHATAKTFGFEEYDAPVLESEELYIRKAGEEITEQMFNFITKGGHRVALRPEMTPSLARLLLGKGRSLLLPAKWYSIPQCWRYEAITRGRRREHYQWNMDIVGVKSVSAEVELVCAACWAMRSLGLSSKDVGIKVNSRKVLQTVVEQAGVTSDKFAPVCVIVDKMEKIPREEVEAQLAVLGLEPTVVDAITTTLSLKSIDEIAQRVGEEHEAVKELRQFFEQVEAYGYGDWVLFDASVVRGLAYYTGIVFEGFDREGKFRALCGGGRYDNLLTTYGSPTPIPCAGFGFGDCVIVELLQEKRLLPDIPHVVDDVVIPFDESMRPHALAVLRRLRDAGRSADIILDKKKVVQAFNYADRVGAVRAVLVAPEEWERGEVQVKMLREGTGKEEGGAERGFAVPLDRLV
UniProt Q8IDJ8, 1-583: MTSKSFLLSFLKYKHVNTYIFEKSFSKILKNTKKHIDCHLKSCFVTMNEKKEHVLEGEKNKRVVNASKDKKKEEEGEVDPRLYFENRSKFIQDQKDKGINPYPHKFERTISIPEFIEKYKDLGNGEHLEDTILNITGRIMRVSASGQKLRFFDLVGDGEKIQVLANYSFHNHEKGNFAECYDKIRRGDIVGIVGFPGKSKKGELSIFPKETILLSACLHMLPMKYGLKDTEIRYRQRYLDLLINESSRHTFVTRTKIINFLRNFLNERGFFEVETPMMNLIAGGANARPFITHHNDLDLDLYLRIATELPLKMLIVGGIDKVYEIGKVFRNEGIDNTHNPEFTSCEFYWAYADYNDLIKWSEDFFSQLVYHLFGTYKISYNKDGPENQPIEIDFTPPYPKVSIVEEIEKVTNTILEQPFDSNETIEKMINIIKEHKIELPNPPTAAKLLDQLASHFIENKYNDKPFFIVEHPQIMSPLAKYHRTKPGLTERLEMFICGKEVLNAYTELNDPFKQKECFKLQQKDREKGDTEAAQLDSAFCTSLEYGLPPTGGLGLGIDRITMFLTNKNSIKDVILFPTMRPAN

Each number is a percent effect as filed. The record does not define 0% and 100%; most values in the screen are far below 50% and negative numbers occur (in some assays of this library far below -100). The compounds are a random part of those screened. Two or more numbers in one place are separate tests of the same structure; such repeats can differ widely. A dash means the value is not listed here; it may have been measured.

A: 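Histidine-tRNA ligase, Leishmania infantum (UniProt A4I591). Enzyme assay of histidyl-tRNA synthetase; the read-out is not stated. Tested at 30 µM. Higher reads as stronger inhibition (inferred: compounds with an IC50 in retests scored well above the rest). The assay is labelled LdHisRS but filed under L. infantum. About 69,000 compounds were tested under these conditions; 0.6% (about 410) showed 50% or more at least once.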
B: 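Enzyme assay of histidyl-tRNA synthetase; the read-out is not stated. Target: Histidine-tRNA ligase, Trypanosoma cruzi CL Brener (UniProt Q4DA54). Concentration: 30 µM. Higher reads as stronger inhibition (inferred: compounds with an IC50 in retests scored well above the rest). Size under these conditions: about 69,000 compounds, about 31 of them at 50% or above in at least one test.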
C: 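Lysine-tRNA ligase, Plasmodium falciparum 3D7 (UniProt Q8IDJ8). Enzyme assay of the cytosolic lysyl-tRNA synthetase in 384-well plates, read by luminescence. Concentration: 30 µM. Higher reads as stronger inhibition, judged from the few compounds that gave an IC50. Size under these conditions: about 69,000 compounds, about 49 of them at 50% or above in at least one test.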
D: 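Cell assay of Leishmania donovani living inside macrophages; the read-out is not stated. Tested at 30 µM. Higher reads as stronger inhibition (inferred: compounds with an IC50 in retests scored well above the rest). About 69,000 compounds were tested under these conditions; 1.5% (about 1,000) showed 50% or more at least once.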

| compound | A | B | C | D |
|---|---|---|---|---|
| `O=C(O)C(F)(F)F.[H][C@@]12CCN(CC3CCC3)[C@]1([H])CC[C@@H](C(=O)NCc1cccs1)O2` | - | - | - | 11.94 |
| `Cn1nccc1NC(=O)c1cccc(CN2C[C@H]3CC[C@@H](C2)N3)c1` | 9.783 | 3.96 | 2.505 | - |
| `Cn1ccnc1CC1CCCN(C(=O)Cc2ccccc2)C1` (stereo not shown) | 4.348 | 14.29 | 2.855 | 1.112 & 12.54 |
| `COC(=O)CNC(=O)c1scnc1C` | 18.58 | 2.212 | 3.643 | 14.32 |
| `CC(C)NC(=O)c1cc(-c2ccc(S(C)(=O)=O)cc2)c2cnn(C)c2n1` | 12.41 | 2.959 | -1.611 | 18.64 |
| `COc1ccccc1NC(=O)c1cc2c([nH]c1=O)CCCC2=O` | 3.448 | 2.062 | -1.601 | -0.06724 |
| `c1cnc(N2CCCC3(COCCN(c4nncs4)C3)C2)cn1` (stereo not shown) | 12.73 | 5.785 | 5.703 | 15.86 |
| `Cc1cccc(C(=O)N2CCc3ncnc(C4CCOC4)c3CC2)n1.O=C(O)C(F)(F)F` (stereo not shown) | - | - | - | -1.463 |
| `CC(C(=O)NCc1ccc2c(c1)OCCO2)n1cncn1` (stereo not shown) | 17.65 | 8.04 | -4.083 | 14.65 |
| `CNC(=O)C1CCC2(CCNCC2)C1.O=C(O)C(F)(F)F` (stereo not shown) | - | - | - | 2.368 |
| `CNC(=O)c1ccc(C2CN(C(=O)c3cnn(C)c3)CCO2)nc1` (stereo not shown) | 17.71 | 11.7 | 2.482 | 4.595 |
| `Cn1ncc2c1C(COCC1CC1)CN(Cc1cccnc1)C2` (stereo not shown) | 16.81 | 2.151 | -0.0326 | -4.86 & 17.56 |
| `CC(=O)N1CCN(c2cc(C3CN(C)CCO3)nc(C)n2)CC1` (stereo not shown) | 11.11 | 5.946 | 8.727 | 5.861 |
| `O=C(NCCCO)C1(N2CCCCC2)Cc2ccccc2C1` | 19.28 | 3.867 | 4.145 | 16.21 |
| `CCCC(=O)N(CCCN1CCOCC1)c1nc2c(C)ccc(Cl)c2s1` | 20.87 | 22.68 | 5.783 | - |
| `COc1cccc(CN(C)Cc2cccc(C#N)c2)c1OC` | 7.692 | -2.674 | 2.445 | 22.56 |
| `COc1ccc(-c2cc(C3CCNCC3)ccn2)cc1` | 4.255 | 3.383 | -0.1526 | - |
| `Cn1ncc(C(=O)OCC2CC(=O)N(c3ccccc3)C2)c1C(F)F` (stereo not shown) | 6.494 | -1.478 | 5.706 | 18.35 |
| `Cc1ccc(F)c(S(=O)(=O)NCCc2nnc[nH]2)c1` | 31.25 | 11.67 | 1.51 | -8.811 |
| `NC(=O)c1ccc(N2CCCCC2)c(NC(=O)c2ccc(F)cc2Cl)c1` | 65.59 | 11.31 | 6.616 | -18.78 |
| `Cn1[nH]c(C2CC2)c(-c2ccc3c(c2)OCO3)c1=N` | 21.28 | 10.98 | -1.336 | 6.028 |
| `CCN1CC2(CCN(CC3CCCO3)CC2)OC1=O` (stereo not shown) | 15.69 | 7.407 | 3.303 | 21.76 |
| `Cc1nc(NC2CCCC2)c2c(n1)c(C)nn2C` | 10.11 | 6.736 | 0.2232 | 41.53 |
| `O=C1CCCCCN1CCc1nc(-c2cccnn2)no1` | 18.37 | 9 | 9.423 | -12.92 |
| `CC[C@H](Cn1ncc2ccccc2c1=O)NC(=O)c1cnc(C)cn1` | 5.674 | -3.876 | 0.3004 | 22.98 |
| `O=C1CCCCCN1CCC(=O)N1CCCC(c2ccn[nH]2)C1` (stereo not shown) | 12.12 | 0 | 1.833 | 26.82 |
| `CCc1ccc(O)c(C(=O)NC2CCN(C(=O)OC)CC2)c1` | 14.89 | 2.29 | 0.2579 | 23.69 |
| `CC(C)c1noc(CCNC(=O)NCC2COc3ccccc3O2)n1` (stereo not shown) | -58.51 | 6.061 | 2.417 | 29.22 |
| `COc1ncc(C(=O)NCc2ccccc2)cn1` | 6.78 | 5.366 | 11.14 | 24.44 |
| `O=C1O[C@@H]2CN(c3cnccn3)C[C@@H]2N1CCCc1ccc(F)cc1` | 10.96 | 0.5405 | -0.5785 | - |
| `Fc1ccccc1Cc1noc(CN2CCC(C3CCCCC3)C2)n1` (stereo not shown) | 20 | 11.21 | 1.101 | 24.53 |
| `CC(Cn1cc(Br)cn1)C(=O)Nc1ccc(Br)cn1` (stereo not shown) | 12.39 | -0.8772 | 0.07535 | -37.05 |
| `CCCn1ncc(C(=O)N(C)Cc2n[nH]c3c2CCC3)c1C` | 12.5 | 3.865 | 8.21 | -15.82 |
| `NC(=O)C1(CNCc2csc(-c3cccs3)n2)CCOCC1` | 10.26 | 5.056 | 3.15 | 4.758 |

Some entries from above, unchanged:

compound	A	B	C	D
O=C1O[C@@H]2CN(c3cnccn3)C[C@@H]2N1CCCc1ccc(F)cc1	10.96	0.5405	-0.5785	-
O=C1CCCCCN1CCc1nc(-c2cccnn2)no1	18.37	9	9.423	-12.92
COc1ccccc1NC(=O)c1cc2c([nH]c1=O)CCCC2=O	3.448	2.062	-1.601	-0.06724